Laboratory results as given in patent publication US20100209345A1, “Fluorinated Ligands for Targeting Peripheral Benzodiazepine Receptors” (Australian Nuclear Science & Technology Organisation, priority 2006, published 2010).
Some of these results come from one statement about several compounds together.

Target: central benzodiazepine receptors
Assay: In vitro binding, [3H]-Flumazenil, brain cortex membrane preparation
Settings: [3H]-Flumazenil (2 nM), 25° C., 45 min, read-out: CBR IC50
Experimental: Non-specific binding was determined with Flumazenil (20 μM). In both cases, incubations were terminated by rapid filtration through Whatman GF/B glass fibre. Filters were immediately washed 3 times with 5 mL ice-cold 50 mM Tris/HCl at pH 7.4. Filters were counted in a β-scintillation counter (Packard) to measure the amount of bound radioactivity. The IC50 of the compounds for the peripheral benzodiazepine binding site and the central benzodiazepine receptor were calculated using Kell 6 software.

SMILES	IC50 [nM]
CCN(CC)C(=O)Cc1c(-c2ccc(OCCF)cc2)nc2ccc(Cl)cn12 [PBR102, 2-(2-(4-(2-fluoroethoxy)phenyl)-6-chloroimidazo[1,2-a]pyridin-3-yl)-N,N-diethylacetamide]	> 1500
CCN(CC)C(=O)Cc1c(-c2ccc(OCCCF)cc2)nc2ccc(Cl)cn12 [PBR111, 2-(2-(4-(3-fluoropropoxy)phenyl)-6-chloroimidazo[1,2-a]pyridin-3-yl)-N,N-diethylacetamide]	> 1500
